The list shows a part of the results.

By UniProt entry, the sequences of proteins in these tests, tags left out.
UniProt Q0JBA9, entry or part of it: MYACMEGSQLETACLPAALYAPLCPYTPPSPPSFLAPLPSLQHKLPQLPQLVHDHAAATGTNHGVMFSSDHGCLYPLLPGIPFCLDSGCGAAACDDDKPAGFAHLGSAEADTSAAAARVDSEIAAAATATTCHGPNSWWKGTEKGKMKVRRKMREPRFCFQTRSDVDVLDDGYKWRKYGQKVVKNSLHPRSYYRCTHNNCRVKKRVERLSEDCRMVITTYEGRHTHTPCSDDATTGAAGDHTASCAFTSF

This note sets out measurements from PMC7819943, “Rice protein-binding microarrays: a tool to detect cis-acting elements near promoter regions in rice”.

For this test, the target named is OsWRKY34 (Oryza sativa, UniProt Q0JBA9 1-250). In words: protein-binding microarray (RPBM); PBS, 2% BSA, 51.3 ng/ul salmon testes DNA, 50 uM zinc acetate, 200 nM TF, 25 C, 1 h; high values mean tight binding. As to conditions: protein: recombinant; tags: N-terminal polyhistidine and DsRed monomer fusion (pET32a); label: CyDye5-dUTP incorporated in the synthesized complementary strand; 3' TTTTT single-stranded linker to array surface; dsDNA, one strand shown. Summed up:
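Using Ni–NTA, transcription factors fused N-terminally to polyhistidine and DsRed were purified after expression in E. coli BL21-CodonPlus. These were incubated at 200 nM with a blocked, double-stranded custom Agilent array for 1 h at 25 °C in a buffer containing 50 µM zinc acetate, and the array was washed. The binding signal is per-feature fluorescence intensity (arbitrary units) on an Axon 4000B scanner.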
For “TCACATCAACCTGTCATACACACACAACTTTTCAGTCATACGGAGTCACCTAGTGCAG”, the binding signal is 9390 fluorescence intensity (a.u.).

“GACCAAGTCTTTCACACCATACTATCTCGGTCTCAACATACGGAGTCACCTAGTGCAG”: the binding signal was 9880 fluorescence intensity (a.u.).

For “CTCTCTCTGCTCGAGCCCGAGTAGCCCTCGTCGTCATTCTCGGAGTCACCTAGTGCAG”, the binding signal was 8950 fluorescence intensity (a.u.).

For “GCGACGTTCGTACGTTCTTCTCTATTGCTTTTCCGTTAATCGGAGTCACCTAGTGCAG”, the binding signal is 11600 fluorescence intensity (a.u.).

As to “AGAGCAAACCCCATAACAAAATCCGATCTCCGGCAGTTTCCGGAGTCACCTAGTGCAG”, the binding signal is 8670 fluorescence intensity (a.u.).

On to “CCTTCTGTTTTTTCCACCGTTGTCGCGGCGATCGCCATCGCGGAGTCACCTAGTGCAG”, for which the binding signal is 9150 fluorescence intensity (a.u.).

Consider “CCCTCCACCCGCGCCATCTCTGCCGCGCACCCCGCCTCTGCGGAGTCACCTAGTGCAG”, for which the binding signal was 11500 fluorescence intensity (a.u.).

Turning to “TGGCCTTATGGTCTTTAAAGCACTGCACCTGTTGTTTCAGCGGAGTCACCTAGTGCAG”, the binding signal was 9460 fluorescence intensity (a.u.).

“CAACTGTGTCGTATCGTACGTACTTTTGTAACGGCTTAATCGGAGTCACCTAGTGCAG”: the binding signal was 8860 fluorescence intensity (a.u.).

As for “ACTACTTGTACCACCACACCGCGCGCTCATCATTAGCCTCCGGAGTCACCTAGTGCAG”, the binding signal was 9270 fluorescence intensity (a.u.).

On to “GGCTTTTCTGCGGCTGCTTTGATCTATATGGGCCGTCAACCGGAGTCACCTAGTGCAG”, for which the binding signal is 9650 fluorescence intensity (a.u.).

Take “TGTGCATTTGTTCTTAAACCGTTTATGGGCCTTTCTTTTTCGGAGTCACCTAGTGCAG”: the binding signal was 10300 fluorescence intensity (a.u.).

On to “AGGGAGGGGAGGTGAACCAGCAGCCTGAGCAGGAGCGGCGCGGAGTCACCTAGTGCAG”, for which the binding signal is 8170 fluorescence intensity (a.u.).

“CATCCCACTGACGCCGCCTTCGCCCGCCGCCTCCTCCGCGCGGAGTCACCTAGTGCAG”: the binding signal was 11100 fluorescence intensity (a.u.).

Take “CGGCGCCGCAGGGCTCACTTACTCGCACTTATTCTGTTATCGGAGTCACCTAGTGCAG”: the binding signal was 11600 fluorescence intensity (a.u.).

With “AGATACACTGACTAACCATTTTGGCCATATACCTGCAAGCCGGAGTCACCTAGTGCAG”, the binding signal is 9490 fluorescence intensity (a.u.).

For “TGTGCGCGCGTCACGGTTTCCTTCCACGTCTCGTCGCTTCCGGAGTCACCTAGTGCAG”, the binding signal was 9140 fluorescence intensity (a.u.).

As for “CAACGCCGCAGTACTTGCCATACCGGATCCCTACGGCTGCCGGAGTCACCTAGTGCAG”, the binding signal is 8290 fluorescence intensity (a.u.).

Turning to “TCCCACGCTCACACCTGCCACTGCCCCACATCCCCGGGCCCGGAGTCACCTAGTGCAG”, the binding signal is 13900 fluorescence intensity (a.u.).

Take “CTGGGTCTTACATCCTTCATACTTCATCTATCCTATAATTCGGAGTCACCTAGTGCAG”: the binding signal was 10200 fluorescence intensity (a.u.).

Turning to “CGTCGAGCACCTTACATCGCCGCTGTCTGCCCCTGTCCTGCGGAGTCACCTAGTGCAG”, the binding signal was 9040 fluorescence intensity (a.u.).

As to “TATCATTATCTCCCGCCTGCTAACCATCGTGTACACCATCCGGAGTCACCTAGTGCAG”, the binding signal is 9000 fluorescence intensity (a.u.).

Consider “TACAGTCGTAGATTTCCGCGTCCAATATTTGACCGTCCTTCGGAGTCACCTAGTGCAG”, for which the binding signal is 8530 fluorescence intensity (a.u.).

Turning to “TTGTTTGCTCTAGGTGTTCTGTTGTCCGCAGTTTCAGGTGCGGAGTCACCTAGTGCAG”, the binding signal was 9020 fluorescence intensity (a.u.).

As for “TCTTCATTTCCGTGTTCAGCAGCTTTGCAATAATTTCTATCGGAGTCACCTAGTGCAG”, the binding signal was 11900 fluorescence intensity (a.u.).

For “TTGGATTTTGAGGAGGGAGGGAGGGAGTAGGGTTTGGTAACGGAGTCACCTAGTGCAG”, the binding signal was 10900 fluorescence intensity (a.u.).

Regarding “GCTCCGCCGTCTTCGCATCCGTCATCTCCGCCACCGATCCCGGAGTCACCTAGTGCAG”, the binding signal was 10300 fluorescence intensity (a.u.).

“CTAGCTACCTCTCACACGTACGTAAGGTCACACTAGCCACCGGAGTCACCTAGTGCAG”: the binding signal is 10900 fluorescence intensity (a.u.).

In the case of “CTTTCATGGTGATTTGCTCTTCTTGTTTGCATGCATGCACCGGAGTCACCTAGTGCAG”, the binding signal is 9390 fluorescence intensity (a.u.).

Take “CTCTCTCTCGATCCCGTCTCGTCTCGTCAGTCTGCACCCGCGGAGTCACCTAGTGCAG”: the binding signal is 8840 fluorescence intensity (a.u.).

Turning to “CCATCCTGTAAAGTCATAACTTCCTAACTCCATATTGTCTCGGAGTCACCTAGTGCAG”, the binding signal was 8780 fluorescence intensity (a.u.).

With “ACTTTTTTAGCATCAAATTCTCATATCTTGACTTTTTTTACGGAGTCACCTAGTGCAG”, the binding signal is 9380 fluorescence intensity (a.u.).

In the case of “TACTTTTTTGTCATACTGCACACTTGAAACACCTAAATATCGGAGTCACCTAGTGCAG”, the binding signal is 9940 fluorescence intensity (a.u.).

With “GACCTAATCCGCACCATAATCACATCTCCAGCTCAATCATCGGAGTCACCTAGTGCAG”, the binding signal was 8110 fluorescence intensity (a.u.).

For “TCGCACGCCCACGCCCACGCACTTCCCGCCGCTCGCGGGTCGGAGTCACCTAGTGCAG”, the binding signal is 9170 fluorescence intensity (a.u.).

“CCCCGATCGCCTAGCTGGTCTCTATAGATAGCACATCCAACGGAGTCACCTAGTGCAG”: the binding signal was 9610 fluorescence intensity (a.u.).

“TATGATCATCCATTGTGTGCTAGCACAATTCGTATTTCATCGGAGTCACCTAGTGCAG”: the binding signal was 9520 fluorescence intensity (a.u.).

Regarding “ATATATCTCGTTTCGTTCAGTTCGTGTGCCTATAAATACGCGGAGTCACCTAGTGCAG”, the binding signal was 8370 fluorescence intensity (a.u.).

For the sequence “ACGTGGTAGTCAAGGTGTGCTTCGTTTACTATTTAACTGCCGGAGTCACCTAGTGCAG”, the binding signal is 9950 fluorescence intensity (a.u.).

As to “GGTGTAGGCGGAGGTGGATGGTGGAGGCGGCGCGTGCCGTCGGAGTCACCTAGTGCAG”, the binding signal is 8830 fluorescence intensity (a.u.).

Consider “GTCAGCTGTCGATTTTTTTTCTTCTCAGCAATGAGGTTTTCGGAGTCACCTAGTGCAG”, for which the binding signal is 9470 fluorescence intensity (a.u.).

Take “TGATCTGCATCTGGGTTTTCTCCTCTCATCTCACCTCTCTCGGAGTCACCTAGTGCAG”: the binding signal is 9000 fluorescence intensity (a.u.).
